Publication doi:10.1101/2021.01.13.426575

Amino acid sequences for entries named in this document (tags omitted). A change or cut given only in a name is not applied to a line headed by its entry.
UniProt Q9Y2G2: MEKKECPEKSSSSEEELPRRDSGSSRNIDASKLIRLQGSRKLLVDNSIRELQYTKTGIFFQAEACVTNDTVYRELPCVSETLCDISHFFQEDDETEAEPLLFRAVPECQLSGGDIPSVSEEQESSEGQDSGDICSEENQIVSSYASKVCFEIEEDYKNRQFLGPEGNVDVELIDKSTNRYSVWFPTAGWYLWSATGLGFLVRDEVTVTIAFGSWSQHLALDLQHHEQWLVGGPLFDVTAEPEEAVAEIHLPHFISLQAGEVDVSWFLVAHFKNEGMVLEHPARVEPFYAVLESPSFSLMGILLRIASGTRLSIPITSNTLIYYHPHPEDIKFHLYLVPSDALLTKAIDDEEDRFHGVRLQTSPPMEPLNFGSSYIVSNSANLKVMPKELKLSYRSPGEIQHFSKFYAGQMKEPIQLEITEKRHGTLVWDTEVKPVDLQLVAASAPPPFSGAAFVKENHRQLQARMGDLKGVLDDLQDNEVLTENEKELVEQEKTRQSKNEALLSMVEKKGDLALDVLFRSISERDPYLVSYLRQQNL
UniProt Q86TI2: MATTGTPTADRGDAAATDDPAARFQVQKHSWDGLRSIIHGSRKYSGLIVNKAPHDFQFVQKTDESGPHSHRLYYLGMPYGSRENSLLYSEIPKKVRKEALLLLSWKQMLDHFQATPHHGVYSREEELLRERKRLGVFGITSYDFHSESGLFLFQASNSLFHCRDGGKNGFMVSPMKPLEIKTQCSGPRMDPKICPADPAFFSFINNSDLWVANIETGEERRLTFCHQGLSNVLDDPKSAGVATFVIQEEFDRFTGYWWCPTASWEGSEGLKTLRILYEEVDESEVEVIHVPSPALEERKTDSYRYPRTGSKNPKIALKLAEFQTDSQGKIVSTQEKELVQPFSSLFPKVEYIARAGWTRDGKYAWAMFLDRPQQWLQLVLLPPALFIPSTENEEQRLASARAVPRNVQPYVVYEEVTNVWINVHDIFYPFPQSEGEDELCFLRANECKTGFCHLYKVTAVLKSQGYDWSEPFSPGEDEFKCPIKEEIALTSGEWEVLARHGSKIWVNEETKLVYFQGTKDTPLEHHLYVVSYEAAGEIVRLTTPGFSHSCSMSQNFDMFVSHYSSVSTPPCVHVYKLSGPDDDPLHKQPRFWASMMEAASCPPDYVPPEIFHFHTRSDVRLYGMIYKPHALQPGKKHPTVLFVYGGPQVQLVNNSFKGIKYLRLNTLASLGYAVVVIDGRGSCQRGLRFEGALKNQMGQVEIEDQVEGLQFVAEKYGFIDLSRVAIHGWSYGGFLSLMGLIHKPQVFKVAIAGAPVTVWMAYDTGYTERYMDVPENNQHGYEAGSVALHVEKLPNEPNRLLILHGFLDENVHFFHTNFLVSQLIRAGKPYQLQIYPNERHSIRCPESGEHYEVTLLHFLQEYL

Tests used:
Test in all cases: co-IP
[1] = target: HA-tagged full-length CARD8 F370G (interface IIIb mutant) (human) (UniProt Q9Y2G2)
[2] = target: HA-tagged full-length CARD8 F405G (interface IIIa mutant) (human) (UniProt Q9Y2G2)
[3] = target: HA-tagged full-length CARD8 L368G (interface IIIb mutant) (human) (UniProt Q9Y2G2)
[4] = target: HA-tagged full-length CARD8 R394E (interface IIIa mutant) (human) (UniProt Q9Y2G2)

Measured: binding

DPP9, endogenous in THP-1 cells (from UniProt Q86TI2 1-863) (enzyme)
binds: all assays above

These are yes or no findings as the source states them, for the method shown. Binding seen in cells or lysates may run through a third protein. Binding can be weak; no strength is given.
